Reference: EP1469082A1 (Boehringer Ingelheim International GmbH, dated 2004)
No constants are given. Whether binding was seen depends on the method and setting. In cells and extracts the contact can be indirect. Some entries that bind do so weakly or less than the wild type.

Chains of the proteins cited; added tags and fusions are not shown. Lines headed by an entry give the natural chain unless they say otherwise; changes in a name come on top.
UniProt Q9H1A4: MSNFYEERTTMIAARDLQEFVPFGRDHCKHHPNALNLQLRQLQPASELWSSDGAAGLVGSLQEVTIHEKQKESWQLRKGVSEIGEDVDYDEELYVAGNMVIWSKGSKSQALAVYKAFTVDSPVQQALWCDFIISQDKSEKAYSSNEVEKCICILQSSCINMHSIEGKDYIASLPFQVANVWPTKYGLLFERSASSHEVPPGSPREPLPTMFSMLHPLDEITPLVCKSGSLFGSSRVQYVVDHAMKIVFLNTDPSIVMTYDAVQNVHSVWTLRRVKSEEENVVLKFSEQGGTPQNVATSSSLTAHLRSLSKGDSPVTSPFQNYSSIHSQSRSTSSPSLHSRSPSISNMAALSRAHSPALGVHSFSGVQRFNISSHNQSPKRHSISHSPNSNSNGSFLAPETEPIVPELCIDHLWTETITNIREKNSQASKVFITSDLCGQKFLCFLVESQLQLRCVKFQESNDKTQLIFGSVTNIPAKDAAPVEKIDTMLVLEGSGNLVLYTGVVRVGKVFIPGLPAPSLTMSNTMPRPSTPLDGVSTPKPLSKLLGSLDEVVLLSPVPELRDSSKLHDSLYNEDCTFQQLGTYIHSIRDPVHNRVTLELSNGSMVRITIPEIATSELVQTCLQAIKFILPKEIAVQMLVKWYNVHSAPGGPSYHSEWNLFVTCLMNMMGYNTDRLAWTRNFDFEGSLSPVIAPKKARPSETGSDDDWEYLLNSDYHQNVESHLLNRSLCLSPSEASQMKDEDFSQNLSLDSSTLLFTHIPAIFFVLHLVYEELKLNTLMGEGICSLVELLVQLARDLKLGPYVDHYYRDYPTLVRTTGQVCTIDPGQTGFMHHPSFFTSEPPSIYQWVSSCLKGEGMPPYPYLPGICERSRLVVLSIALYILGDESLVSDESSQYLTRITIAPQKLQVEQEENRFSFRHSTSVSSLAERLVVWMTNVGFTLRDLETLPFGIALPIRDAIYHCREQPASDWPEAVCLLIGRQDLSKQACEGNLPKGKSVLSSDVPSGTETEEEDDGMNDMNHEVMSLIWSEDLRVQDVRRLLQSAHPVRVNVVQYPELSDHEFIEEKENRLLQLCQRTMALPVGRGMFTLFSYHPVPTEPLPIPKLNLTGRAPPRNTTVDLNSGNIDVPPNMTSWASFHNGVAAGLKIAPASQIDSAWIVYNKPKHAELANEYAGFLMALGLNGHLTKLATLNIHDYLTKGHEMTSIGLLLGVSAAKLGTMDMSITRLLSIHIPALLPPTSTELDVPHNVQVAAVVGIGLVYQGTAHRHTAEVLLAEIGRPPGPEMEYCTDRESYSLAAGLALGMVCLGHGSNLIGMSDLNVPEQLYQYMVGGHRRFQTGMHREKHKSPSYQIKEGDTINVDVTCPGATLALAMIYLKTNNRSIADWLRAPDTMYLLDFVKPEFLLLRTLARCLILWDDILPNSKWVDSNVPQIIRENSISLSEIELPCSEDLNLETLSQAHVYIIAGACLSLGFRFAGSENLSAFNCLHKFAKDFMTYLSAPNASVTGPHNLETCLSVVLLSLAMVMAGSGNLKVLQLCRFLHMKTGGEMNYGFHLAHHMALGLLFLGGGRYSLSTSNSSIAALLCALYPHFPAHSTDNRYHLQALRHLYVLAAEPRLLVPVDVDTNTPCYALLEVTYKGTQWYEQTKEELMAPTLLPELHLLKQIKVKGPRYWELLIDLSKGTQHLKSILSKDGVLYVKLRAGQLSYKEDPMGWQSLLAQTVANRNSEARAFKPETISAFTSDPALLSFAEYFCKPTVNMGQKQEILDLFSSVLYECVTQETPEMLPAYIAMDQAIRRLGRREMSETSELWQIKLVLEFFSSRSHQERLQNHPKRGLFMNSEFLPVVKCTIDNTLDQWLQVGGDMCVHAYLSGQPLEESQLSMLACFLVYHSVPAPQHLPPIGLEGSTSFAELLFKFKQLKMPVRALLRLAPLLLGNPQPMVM

Target: T1, CDH1 C-terminal peptide … (human)
T1 sequence (peptide): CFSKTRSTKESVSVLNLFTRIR
Experiment: peptide matrix pull-down from APC-containing fractions, western blot of all subunits

- binding: binds
Substance: holo-APC (Anaphase Promoting Complex / cyclosome) from HeLa cells (from UniProt Q9H1A4 1-1944; Q9UJX6 1-822; P30260 1-824; Q9UJX5 1-808; Q9UJX4 1-755; Q13042 1-620; Q9UJX3 1-565; Q9UJX2 2-597; Q9UM13 2-185; Q9NYG5 1-84; Q8NHZ8 1-85)
